These are yes or no findings as the source states them, for the method shown. In cells and extracts the contact can be indirect. For some assays here: Binding can be weak; no strength is given.

Assay [1] deals with ENTH domain only of LqfR fused to GFP (LqfR^ENTH-GFP) (Drosophila). Kind of assay: co-IP; GFP fusion precipitated from embryo extracts with GFP-trapA (Chromotek), 2 hrs at 4°C; lysis buffer 1% NP40, 0.5% deoxycholate, 1 mM DTT, 150 mM NaCl, 50 mM Tris pH 8.0; washes in lysis buffer and 500 mM NaCl; partners detected by Western blot. (Immunoblotting shows a protein as a band on a membrane.)

Assay [2] has as its target full-length LqfRa fused at its C-terminus to GFP (LqfRa^FL-GFP) (Drosophila). The assay is described as above.

B1: α-catenin (protein, UniProt P35220 1-917)
chain: MLKPDKMGTLTDFGQIALKWDPKNLEIRTMSVEKTLEPLVLQVTTLVNTKGPSKKKKGKSKRASALVAAVEKATENFIQKGEQIAYENPDITQEMLTAVDEVKKTGDAMSIAAREFSEDPCSSLKRGNMVRAARNLLSAVTRLLILADMVDVHLLLKSLHIVEDDLNKLKNASSQDELMDNMRQFGRNAGELIKQAAKRQQELKDPQLRDDLAAARAMLKKHSTMLLTASKVYVRHPELDLAKVNRDFILKQVCDAVNTISDVAQGKSSQPTDIYSGAGELAAALDDFDEGIVMDPMTYSEKRSRQLLEERLESIISAAALMADADCTRDERRERIVAECNAVRQALQDLLSEYMSNMSQKDNSPGLSRAIDQMCRKTRDLRRQLRKAVVDHVSDSFLETTTPLLDLIEAAKSGNEKKVREKSEIFTKHAEKLVEVANLVCSMSNNEDGVKMVRYAAAQIESLCPQVINAASILTVRPNSKVAQENMTTYRQAWEVQVRILTEAVDDITTIDDFLAVSENHILEDVNKCVMALQVGDARDLRATAGAIQGRSSRVCNVVEAEMDNYEPCIYTKRVLEAVKVLRDQVMMKFDQRVGAAVGALSNNSNKDVDENDFIDASRLVYDGVREIRRAVLMNRSSEDLDTDTEFEPVEDLTLETRSRSSAHTGDQTVDEYPDISGICTAREAMRKMTEEDKQKIAQQVELFRREKLTFDSEVAKWDDTGNDIIFLAKHMCMIMMEMTDFTRGRGPLKTTMDVINAAKKISEAGTKLDKLTREIAEQCPESSTKKDLLAYLQRIALYCHQIQITSKVKADVQNISGELIVSGLDSATSLIQAAKNLMNAVVLTVKYSYVASTKYTRQGTVSSPIVVWKMKAPEKKPLVRPEKPEEVRAKVRKGSQKKVQNPIHALSEFQSPADAV
B1: the results for the binding entry in assay [1] and in assay [2] were “no binding” and “binds”, respectively.

The values above are taken from PMC3460857.
